Data: publication PMC9454482
These are yes or no findings as the source states them, for the method shown. Binding seen in cells or lysates may run through a third protein. Some entries that bind do so weakly or less than the wild type.

By UniProt entry, the sequences of proteins in these tests, tags left out.
UniProt Q9CQW9: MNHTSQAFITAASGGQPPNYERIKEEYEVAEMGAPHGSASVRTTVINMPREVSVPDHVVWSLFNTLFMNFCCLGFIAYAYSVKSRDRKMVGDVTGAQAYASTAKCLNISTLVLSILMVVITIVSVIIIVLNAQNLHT

Target: Interferon-induced transmembrane protein 3 (Ifitm3), mouse (mouse (endogenous in BM-DCs)) (UniProt Q9CQW9)
Test: co-IP; IP with anti-fragilis (Ifitm3) from lysates of wt and Ifitm3-/- BM-DCs infected with MCMV (MOI 1) for 3 h; Ifitm3 and Nogo-B detected by Western blot

B1: Nogo-B (reticulon 4 isoform), mouse (protein, UniProt Q99P72-5 1-356)
chain: MEDIDQSSLVSSSADSPPRPPPAFKYQFVTEPEDEEDEEDEEEEEDDEDLEELEVLERKPAAGLSAAPVPPAAAPLLDFSSDSVPPAPRGPLPAAPPTAPERQPSWERSPAASAPSLPPAAAVLPSKLPEDDEPPARPPAPAGASPLAEPAAPPSTPAAPKRRGSGSVVVDLLYWRDIKKTGVVFGASLFLLLSLTVFSIVSVTAYIALALLSVTISFRIYKGVIQAIQKSDEGHPFRAYLESEVAISEELVQKYSNSALGHVNSTIKELRRLFLVDDLVDSLKFAVLMWVFTYVGALFNGLTLLILALISLFSIPVIYERHQAQIDHYLGLANKSVKDAMAKIQAKIPGLKRKAE
B1 was tested, and the binding was “binds”.
